Results taken from paper PMC6981194.
No constants are given. Whether binding was seen depends on the method and setting. Binding seen in cells or lysates may run through a third protein. Some results given as binding are weak or reduced against the parent protein; the word gives no strength.

Sequences of proteins named here, by UniProt entry; tags and fusion partners are left off.
UniProt P18708: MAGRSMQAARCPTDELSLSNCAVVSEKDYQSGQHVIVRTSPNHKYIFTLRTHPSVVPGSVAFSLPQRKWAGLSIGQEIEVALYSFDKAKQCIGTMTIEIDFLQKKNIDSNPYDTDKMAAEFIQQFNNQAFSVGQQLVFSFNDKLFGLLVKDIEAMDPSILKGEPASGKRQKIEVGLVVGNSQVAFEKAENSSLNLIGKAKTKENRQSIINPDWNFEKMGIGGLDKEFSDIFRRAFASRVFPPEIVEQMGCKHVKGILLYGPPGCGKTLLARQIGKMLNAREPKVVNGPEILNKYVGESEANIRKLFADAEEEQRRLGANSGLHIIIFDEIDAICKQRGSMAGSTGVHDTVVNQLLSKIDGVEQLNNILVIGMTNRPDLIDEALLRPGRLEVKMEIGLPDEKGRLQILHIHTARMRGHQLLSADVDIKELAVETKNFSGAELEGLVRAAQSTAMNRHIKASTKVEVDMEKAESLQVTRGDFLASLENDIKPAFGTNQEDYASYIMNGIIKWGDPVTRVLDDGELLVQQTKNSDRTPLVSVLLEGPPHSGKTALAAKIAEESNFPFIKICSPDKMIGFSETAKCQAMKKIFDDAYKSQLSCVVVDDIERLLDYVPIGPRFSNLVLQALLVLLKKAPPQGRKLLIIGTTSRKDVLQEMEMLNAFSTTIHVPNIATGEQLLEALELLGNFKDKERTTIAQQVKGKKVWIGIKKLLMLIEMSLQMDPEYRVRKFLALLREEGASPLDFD
UniProt P46460: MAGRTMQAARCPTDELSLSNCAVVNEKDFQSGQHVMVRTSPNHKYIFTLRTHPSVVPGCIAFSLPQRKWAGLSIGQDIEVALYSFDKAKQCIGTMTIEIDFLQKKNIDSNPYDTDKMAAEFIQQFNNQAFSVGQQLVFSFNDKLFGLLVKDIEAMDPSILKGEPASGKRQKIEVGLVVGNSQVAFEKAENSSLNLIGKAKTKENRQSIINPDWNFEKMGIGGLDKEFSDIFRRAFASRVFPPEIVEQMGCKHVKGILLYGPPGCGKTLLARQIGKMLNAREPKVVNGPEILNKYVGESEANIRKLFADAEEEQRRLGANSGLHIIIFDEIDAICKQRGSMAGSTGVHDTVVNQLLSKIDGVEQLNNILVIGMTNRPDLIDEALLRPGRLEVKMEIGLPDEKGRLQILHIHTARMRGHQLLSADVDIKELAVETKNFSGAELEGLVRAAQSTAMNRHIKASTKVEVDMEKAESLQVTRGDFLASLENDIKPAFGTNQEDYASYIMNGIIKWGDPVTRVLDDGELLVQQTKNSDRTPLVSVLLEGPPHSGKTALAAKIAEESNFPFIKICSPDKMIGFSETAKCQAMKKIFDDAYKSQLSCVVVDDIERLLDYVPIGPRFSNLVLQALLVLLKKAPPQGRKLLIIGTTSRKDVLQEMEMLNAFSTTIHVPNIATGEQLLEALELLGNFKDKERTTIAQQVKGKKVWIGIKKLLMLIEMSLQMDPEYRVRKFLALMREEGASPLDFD
UniProt A0A8C2QHS8: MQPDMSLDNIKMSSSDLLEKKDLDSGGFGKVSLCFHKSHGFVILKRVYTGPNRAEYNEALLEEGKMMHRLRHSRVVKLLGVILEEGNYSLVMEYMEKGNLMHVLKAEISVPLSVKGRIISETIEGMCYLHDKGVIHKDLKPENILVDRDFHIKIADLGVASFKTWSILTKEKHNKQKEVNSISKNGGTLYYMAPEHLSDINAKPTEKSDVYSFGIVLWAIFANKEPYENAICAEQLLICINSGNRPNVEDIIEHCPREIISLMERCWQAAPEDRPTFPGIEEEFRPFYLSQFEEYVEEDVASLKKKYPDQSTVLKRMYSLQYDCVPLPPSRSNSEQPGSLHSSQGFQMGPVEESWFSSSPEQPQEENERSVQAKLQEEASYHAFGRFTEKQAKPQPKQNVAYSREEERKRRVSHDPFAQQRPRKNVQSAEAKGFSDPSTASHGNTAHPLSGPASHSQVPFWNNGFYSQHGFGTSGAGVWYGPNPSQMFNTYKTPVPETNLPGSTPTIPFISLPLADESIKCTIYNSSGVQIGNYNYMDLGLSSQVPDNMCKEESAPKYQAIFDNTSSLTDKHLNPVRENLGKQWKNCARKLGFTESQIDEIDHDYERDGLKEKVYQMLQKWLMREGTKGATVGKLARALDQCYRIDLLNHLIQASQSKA

Columns and labels:
[1] = biological target: T1, ASIC1a N-terminal truncation mutant Δ1–20 (mouse) (UniProt Q6NXK8); experiment: co-IP; lysates of transfected CHO cells exposed to pH 7.4 or pH 6.0; anti-ASIC1a antibody, Protein G agarose, 4 °C; lysis buffer 20 mM Tris-Cl pH 7.4, 150 mM NaCl, 1% Triton X-100; blots for RIPK1 and NSF
T1 sequence: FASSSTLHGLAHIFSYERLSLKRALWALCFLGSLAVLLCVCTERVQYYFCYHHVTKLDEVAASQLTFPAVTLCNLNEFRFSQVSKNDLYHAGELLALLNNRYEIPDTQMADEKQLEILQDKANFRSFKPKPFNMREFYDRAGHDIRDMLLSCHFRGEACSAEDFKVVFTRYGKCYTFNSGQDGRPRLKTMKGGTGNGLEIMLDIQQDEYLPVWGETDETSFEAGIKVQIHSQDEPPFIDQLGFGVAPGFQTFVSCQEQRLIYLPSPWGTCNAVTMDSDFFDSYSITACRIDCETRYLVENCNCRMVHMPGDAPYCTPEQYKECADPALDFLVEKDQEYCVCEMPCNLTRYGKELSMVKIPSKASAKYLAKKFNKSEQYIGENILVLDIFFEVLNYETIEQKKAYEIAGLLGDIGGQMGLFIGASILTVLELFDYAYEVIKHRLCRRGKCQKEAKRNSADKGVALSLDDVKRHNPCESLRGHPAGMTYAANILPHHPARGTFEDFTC

[2] = biological target: T2, ASIC1a N-terminal truncation mutant Δ1–41 (mouse) (UniProt Q6NXK8); experiment: as above
T2 sequence: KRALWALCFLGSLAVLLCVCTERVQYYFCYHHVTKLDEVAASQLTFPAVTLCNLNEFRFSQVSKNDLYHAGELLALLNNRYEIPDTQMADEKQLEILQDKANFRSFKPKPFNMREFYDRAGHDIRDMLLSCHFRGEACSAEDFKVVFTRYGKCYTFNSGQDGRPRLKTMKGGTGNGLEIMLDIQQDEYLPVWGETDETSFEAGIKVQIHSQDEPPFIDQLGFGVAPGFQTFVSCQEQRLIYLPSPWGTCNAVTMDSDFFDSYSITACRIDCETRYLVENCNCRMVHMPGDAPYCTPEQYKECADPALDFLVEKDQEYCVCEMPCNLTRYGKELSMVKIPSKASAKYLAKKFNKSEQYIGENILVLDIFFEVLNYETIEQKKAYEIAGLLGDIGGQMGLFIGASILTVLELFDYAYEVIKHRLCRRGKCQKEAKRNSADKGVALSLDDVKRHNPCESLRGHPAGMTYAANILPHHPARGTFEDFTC

[3] = biological target: T3, acid-sensing ion channel 1a (ASIC1a), wild type, expressed in CHO cells (mouse) (UniProt Q6NXK8); experiment: as above
T3 sequence: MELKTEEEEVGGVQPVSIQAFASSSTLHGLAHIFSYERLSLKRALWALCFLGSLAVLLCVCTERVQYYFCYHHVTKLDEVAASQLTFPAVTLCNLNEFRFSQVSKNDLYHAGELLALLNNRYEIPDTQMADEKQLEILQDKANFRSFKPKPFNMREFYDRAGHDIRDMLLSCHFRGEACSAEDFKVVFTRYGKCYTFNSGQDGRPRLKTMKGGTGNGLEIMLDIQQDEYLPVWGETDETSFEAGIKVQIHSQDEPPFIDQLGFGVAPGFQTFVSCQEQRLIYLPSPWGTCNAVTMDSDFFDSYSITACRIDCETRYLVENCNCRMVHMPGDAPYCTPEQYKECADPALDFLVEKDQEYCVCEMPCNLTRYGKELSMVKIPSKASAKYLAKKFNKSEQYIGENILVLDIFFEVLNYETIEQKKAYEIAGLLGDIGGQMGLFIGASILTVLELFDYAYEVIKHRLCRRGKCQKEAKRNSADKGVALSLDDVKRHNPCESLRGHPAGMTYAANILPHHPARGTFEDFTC

[4] = biological target: T4, acid-sensing ion channel 1a (ASIC1a), endogenous in mouse brain and cultured mouse cortical neurons (mouse (endogenous in brain and cortical neurons)) (UniProt Q6NXK8); experiment: co-IP; lysates of contralateral and ischemic (MCAO, 1 h) mouse brain hemispheres, WT and ASIC1a KO mice; anti-ASIC1a, anti-RIPK1 or anti-NSF antibody, Protein G agarose, 4 °C; lysis buffer 20 mM Tris-Cl pH 7.4, 150 mM NaCl, 1% Triton X-100
T4 sequence: T3 sequence

[5] = biological target: T5, receptor-interacting serine/threonine-protein kinase 1 (RIPK1), endogenous in mouse brain and cultured mouse cortical neurons (mouse (endogenous in brain and cortical neurons)) (UniProt Q60855); experiment: as above
T5 sequence: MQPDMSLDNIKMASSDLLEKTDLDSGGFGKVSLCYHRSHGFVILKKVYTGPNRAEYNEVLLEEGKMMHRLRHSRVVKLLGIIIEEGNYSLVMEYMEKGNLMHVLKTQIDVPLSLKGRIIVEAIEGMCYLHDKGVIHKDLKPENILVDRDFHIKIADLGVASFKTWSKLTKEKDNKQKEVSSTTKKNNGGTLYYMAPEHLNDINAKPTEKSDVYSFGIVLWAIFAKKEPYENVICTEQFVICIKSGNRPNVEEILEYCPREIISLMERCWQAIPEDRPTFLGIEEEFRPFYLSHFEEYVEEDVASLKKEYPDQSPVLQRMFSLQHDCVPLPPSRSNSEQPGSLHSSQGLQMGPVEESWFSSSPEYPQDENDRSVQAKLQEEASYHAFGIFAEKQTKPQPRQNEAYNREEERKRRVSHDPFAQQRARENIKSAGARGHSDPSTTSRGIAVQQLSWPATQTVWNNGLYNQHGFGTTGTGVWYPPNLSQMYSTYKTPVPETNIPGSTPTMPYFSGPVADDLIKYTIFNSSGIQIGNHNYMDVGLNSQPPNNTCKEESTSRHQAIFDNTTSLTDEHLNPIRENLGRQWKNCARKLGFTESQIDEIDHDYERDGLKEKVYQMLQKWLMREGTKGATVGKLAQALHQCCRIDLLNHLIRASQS

N-ethylmaleimide-sensitive fusion ATPase (NSF) in CHO cells (from UniProt P18708 1-744)
binding [1]: binds
binding [2]: binds
binding [3]: binds

N-ethylmaleimide-sensitive fusion ATPase (NSF), endogenous in mouse brain and cultured mouse cortical neurons (from UniProt P46460 1-744)
binding [4]: binds
binding [5]: binds

receptor-interacting serine/threonine-protein kinase 1 (RIPK1) in CHO cells (from UniProt A0A8C2QHS8 1-659)
binding [1]: binds
binding [3]: binds
